Experimental data reported in article PMC10663520, “Qa-SNARE syntaxin 18 mediates lipid droplet fusion with SNAP23 and SEC22B” (Cell Discovery, 2023).
Results are given in words; binding and its absence hold for the method and conditions named. Binding can be weak; no strength is given. Sequences can lack the tags named with a protein. For some assays here: Binding seen in cells or lysates may run through a third protein.

Columns and labels:
[1] = target: T1, GST-Flag-STX18 (full-length) (UniProt Q9P2W9); test: pull-down; GST-Flag-tagged SNARE on GST agarose beads, 4 °C 1 h; 20 mM HEPES pH 7.4, 300 mM NaCl, 1 mM EDTA, 1% OG; purified FSP27 (3.3 mg/mL, 5 μL) added; western blot; both purified
T1 sequence: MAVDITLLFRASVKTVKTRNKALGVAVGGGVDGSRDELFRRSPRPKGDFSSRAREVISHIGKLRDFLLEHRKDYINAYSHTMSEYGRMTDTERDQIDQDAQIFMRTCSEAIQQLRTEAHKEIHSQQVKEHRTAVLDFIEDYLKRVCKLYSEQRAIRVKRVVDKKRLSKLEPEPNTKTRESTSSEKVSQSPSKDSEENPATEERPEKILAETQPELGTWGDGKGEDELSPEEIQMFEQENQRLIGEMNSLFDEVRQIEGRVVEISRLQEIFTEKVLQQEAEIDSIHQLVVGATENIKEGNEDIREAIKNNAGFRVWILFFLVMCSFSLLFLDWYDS

[2] = target: T2, Flag-STX18 WT (syntaxin 18) (UniProt Q9P2W9); test: co-IP; cells (HEK293T in the legend, HepG2 in the text) transfected with Flag-STX18 and GFP-FSP27 36 h, with or without 0.2 mM OA-BSA 12 h; Flag IP; western blot
T2 sequence: T1 sequence

Row | binding [1] | binding [2] | Substance
1 | binds | – | CIDEC/FSP27 (full-length, purified)
2 | – | binds | GFP-FSP27 (CIDEC/FSP27)
